The test system of the assay is ovarian cell lines. The assay is described as follows: cells.

A value given as a limit tells only on which side of the number the result lay.

By IC50 is commonly meant the concentration needed to halve the response being measured. Higher therefore signals lower potency. `CCN(c1cc(-c2ccc(CN3CCOCC3)cc2)cc(C(=O)NCc2c(C)cc(C)[nH]c2=O)c1C)C1CCOCC1` [tazemetostat] registered an IC50 of at least 0.073 µM.

Values taken from US20200138825A1, “METHOD OF TREATING MALIGNANT RHABDOID TUMOR OF THE OVARY (MRTO)/SMALL CELL CANCER OF THE OVARY OF THE HYPERCALCEMIC TYPE(SCCOHT) WITH AN EZH2 INHIBITOR” (Epizyme, Inc., priority 2015, published 2020).
